Results of single-concentration screens

Sequences of proteins named here, by UniProt entry; tags and fusion partners are left off. Residues count along the entry.
UniProt Q4DA54, 1-478: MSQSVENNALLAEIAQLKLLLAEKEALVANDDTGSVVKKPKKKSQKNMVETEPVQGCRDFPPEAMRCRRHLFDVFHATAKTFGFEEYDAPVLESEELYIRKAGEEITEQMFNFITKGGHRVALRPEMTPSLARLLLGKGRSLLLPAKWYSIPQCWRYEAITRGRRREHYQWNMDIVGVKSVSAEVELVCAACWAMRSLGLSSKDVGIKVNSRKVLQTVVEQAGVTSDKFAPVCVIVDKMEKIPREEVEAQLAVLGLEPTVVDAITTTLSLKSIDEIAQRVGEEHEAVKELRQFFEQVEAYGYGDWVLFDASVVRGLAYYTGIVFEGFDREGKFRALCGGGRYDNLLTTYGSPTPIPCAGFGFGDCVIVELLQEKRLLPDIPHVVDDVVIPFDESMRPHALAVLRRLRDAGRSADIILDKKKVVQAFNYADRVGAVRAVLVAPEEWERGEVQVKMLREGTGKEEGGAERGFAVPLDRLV

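Enzyme assay of histidyl-tRNA synthetase; the read-out is not stated. Target: Histidine-tRNA ligase, Trypanosoma cruzi CL Brener (UniProt Q4DA54). Compounds at 30 µM. The record gives no direction; compounds that gave an IC50 in retests scored well above the rest, so higher reads as stronger inhibition. Size under these conditions: about 69,000 compounds, about 31 of them at 50% or above in at least one test.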

The filed quantity is “Percent Effect” (%).
How 0% and 100% were set is not recorded. Most values in the screen are low, and negative values occur.
This is an unselected part of the compounds tested.

| SMILES | effect |
|---|---|
| `Cc1ccc(F)c(OC2(C(=O)O)CCN(C(=O)c3ccccc3)CC2)c1` | -13.27 |
| `Cc1cccc(OC2CCN(c3nccnc3C#N)CC2)n1` | 1.031 |
| `CC(C)(C)n1c(NC(=O)CNC(=O)NC2CC2)nc2ccccc21` | 7.368 |
| `CS(=O)(=O)NC1CCN(C(=O)c2cnc(-c3cccnc3)nc2)CC1` | 3.96 |
| `Cc1cccc(CNC(=O)NCC2CCN(Cc3ncc[nH]3)C2)c1` (centres undefined) | 3.863 |
| `COCC(=O)NCCSCCOc1cccc(Br)c1` | 2.469 |
| `CCCOCCN1CCC2(CC1)CC(=O)N(Cc1cc(F)cc(F)c1)C2` | 4.523 |
| `Cc1nn(C)cc1-c1cc(C(F)(F)F)nc(NC2CCN(C)CC2)n1` | 1.031 |
| `CC(Oc1ccc(S(C)(=O)=O)cc1)C(=O)NC(N)=O` (centres undefined) | 0 |
| `CCCC(NC(=O)c1cc(C)ccc1O)c1nnn[nH]1` (centres undefined) | 5 |
| `CS(=O)(=O)N1CC2(CCN(C3CCCCC3)CC2)Cc2ccccc21` | 7.692 |
| `O=C1N(Cc2cccc(F)c2)CCC12CCCNC2` (centres undefined) | 1.942 |
| `O=C(C1CCOCC1)N1C[C@H]2CCC[C@@]2(COCc2ccccn2)C1` | -2.513 |
| `CCOCC1CN(Cc2nccs2)Cc2nn(CC3CC3)cc21` (centres undefined) | 4.878 |
| `CCOCCN1CCN(CC(=O)N2CCCC2)CC1C` (centres undefined) | 1.02 |
| `Cc1cnc(N2CCCn3c(nnc3Cn3cccn3)C2)nc1` | 9.091 |
| `O=C(c1ccc(C2CCCO2)s1)N1Cc2ccccc2C1` (centres undefined) | 1.667 |
| `N#CCCN(CC1CC1)Cn1cc(Cl)cn1` | -0.4425 |
| `c1cnc(N2CCC3(CCN(CC4CCCC4)CC3)C2)nc1` | 5.6 |
| `Cn1c(-c2cccs2)nn(CCNS(=O)(=O)c2ccccc2Cl)c1=O` | 3.093 |
| `CC(=O)c1cccc(S(=O)(=O)N2CCC(c3n[nH]c(C)n3)CC2)c1` | 5.732 |
| `CN1CC[C@H]2OCC[C@@]2(C(=O)NCCc2ccccn2)C1` | 3.883 |
| `O=C(Cc1ccc(F)cc1)N1CCCC(c2n[nH]c3nccnc23)C1` (centres undefined) | 11.7 |
| `Cn1ncc2c(N3CCCN4CCC[C@H]4C3)nc(C(C)(C)C)nc21` | 15.08 |
| `CCc1cnc(CN(C)C2CCN(CCS(C)(=O)=O)C2)o1` (centres undefined) | 4.878 |
| `Cc1cc(C2CCCN2C(=O)c2cnn(C)c2)on1` (centres undefined) | 6.186 |
| `Cc1cc2n(n1)CC(CNC1CCN(Cc3ccccn3)CC1)CN2` (centres undefined) | 6.977 |
| `CCNC(=O)N1CCc2ccc(NC(=O)NCCOCC)cc21` | 9.135 |
| `O=C(CS(=O)(=O)Cc1ccc(F)cc1)NCc1ccccc1F` | 2.941 |
| `COc1cccc(CNCc2cccnc2-n2cccn2)c1OC` | 9.231 |
| `O=C(CN1CCCCC1)Nc1cc(C(F)(F)F)ccc1-n1cccc1` | 3.125 |
| `CCN(CCCNC(=O)Nc1ccccc1C(C)C)S(C)(=O)=O` | 5.217 |
| `O=C(Cc1cccs1)N1CCCC(CNS(=O)(=O)Cc2ccccc2)C1` (centres undefined) | 9.184 |
| `NC(=O)COc1ccc(CNCc2c(F)cccc2F)cc1` | 4.911 |
| `CCOc1ccc(N2CCCN=C2NC(=O)c2cccc(Cl)c2)cc1` | 5.858 |
| `Cc1nc(C)n(CC2CCCN2CC(=O)Nc2cccnc2)n1` (centres undefined) | 0.4464 |
| `CC(C)c1nnc(CNC2CCCN(Cc3noc(C4CC4)n3)C2)o1` (centres undefined) | 6.122 |
| `FC(F)(F)c1ccc(-c2cnc(C3CCCN3)cn2)cc1` (centres undefined) | 5.303 |
| `Cc1ccc(OCC(O)CN(C)CC(=O)NC(C)C)c(C)c1` (centres undefined) | 6.358 |
| `Cc1nn(C)c(Oc2ccccc2)c1CNC1CCOc2ccccc21` (centres undefined) | 1.058 |
| `CNC(=O)C1CN(c2ccc(F)cc2)CCN1` (centres undefined) | 8.046 |
| `Cc1cccc(N2CCN(CCS(=O)(=O)c3ccc(Br)cc3)CC2)c1C` | 11.7 |
| `COCCn1cc(NC(=O)N(CCC(N)=O)Cc2ccccc2)cn1` | 9.412 |
| `CN(C)CC(=O)N1C[C@H]2CCC[C@@]2(COc2ccccn2)C1` | 3.825 |
| `O=C1C(NCc2nnc3n2CCCC3)CCN1CC(F)(F)F` (centres undefined) | -2.29 |
| `COc1cc(OC)cc(C2(O)CCN(Cc3ncc(C)o3)CC2)c1` | 2.597 |
| `Cc1ccoc1C(=O)N1C[C@@H](OCC2CCOCC2)[C@H]2OCCC[C@H]21` | 5.6 |
| `COC[C@H]1CNC(=O)[C@@H]2CCN(Cc3cccc(C)n3)CC[C@H]12` | 3.922 |
| `COCCO[C@H]1CCN(C(=O)c2ccno2)[C@H]1Cc1cnn(C)c1` | 1.604 |
| `O=C(c1ccco1)N1CCC[C@]2(C[C@H](Oc3ncccc3F)CO2)C1` | 6.14 |
| `Cc1nc2cc(-c3nccn3C)nn2c(N2CCC(O)CC2)c1C` | -1.13 |
| `Cc1occc1C(=O)N1CCCN(Cc2nccn2C)CC1` | 1.156 |
| `CCS(=O)(=O)N1CCCn2nnc(CNC(C)=O)c2C1` | -1.508 |
| `COc1cc(N2CCC3(CCN(Cc4csc(C)n4)C3)CC2)ncn1` | 1.105 |
| `CSc1ccc(OC(C)C(=O)Nc2cc(C)n[nH]2)cc1` (centres undefined) | 1.604 |
| `O=C1CC2(CCN(CC3CC3)CC2)CN1Cc1cc(F)cc(F)c1` | 4.523 |
| `Cc1noc(CN(C)Cc2ccc3c(c2)OCO3)n1` | 2.326 |
| `CCCn1nnc(NCc2ccccc2OCc2ccc(Cl)cc2)n1` | -7 |
| `Cc1cnn(CCCNC(=O)CCC2CCCCN2C)c1` (centres undefined) | 1.293 |
| `O=C(NCc1nncn1C1CC1)c1ccccc1Oc1cccnc1` | 3.867 |
| `CS(=O)(=O)N1CCN(C(=O)c2cc(-c3ccc(Br)s3)n[nH]2)CC1` | 7.216 |
| `CC(C)NC(=O)CN1CCC2(CC1)OCCO2` | 5.556 |
| `Cc1ccc(N2CCCN(C(=O)C(C)OCC3CC3)CC2)nn1` (centres undefined) | 1.587 |
| `Cc1noc(C)c1CN1CCn2cc(CNc3ccccn3)nc2C1` | 16.2 |
| `CCc1ccc(C(=O)N(CC)Cc2ccoc2)cc1S(C)(=O)=O` | 2.646 |
| `CC(C)COCCC(=O)Nc1cccnc1-n1cncn1` | 7.772 |
| `CCN(Cc1nc(C2CC2)no1)Cc1ccc(C#N)cc1F` | -1.463 |
| `CN(C)C(C(=O)NCC1(N(C)C)CCOCC1)c1ccccc1F` (centres undefined) | 9.554 |
| `Cc1ccc(-c2ccnc(N3CCC4(CC3)CNC(=O)C4)n2)c(C)n1` | 5.952 |
| `COCCN1C[C@H]2CC[C@@H]1CN(Cc1ccc3ccccc3n1)C2` | 19.15 |
| `Cc1noc(C)c1CNC(=O)N(C)C1CCN(c2ccccc2)C1=O` (centres undefined) | 2.353 |
| `Cc1ccc(OCc2nc(CNCCn3cccn3)cs2)cc1` | 5.699 |
| `Cn1cnc2c1CCN(C(C(=O)N1CCCCC1)c1ccccc1)C2` (centres undefined) | 0.5291 |
| `Cc1nc(CN2CCN(c3ccc(Cl)cn3)CC2)no1` | 14 |
| `Cc1ccc(C(C)N(C)Cc2nc3c(cnn3C)c(=O)[nH]2)s1` (centres undefined) | 3.79 |
| `CN(CC(=O)NCc1ccco1)Cc1nc2c(s1)CCCC2` | 3.727 |
| `CCN(C)c1ncnc2c1CCN(C(=O)c1ccc(C)o1)CC2` | 0.9901 |
| `COc1ccc(C(=O)N2CCC(Oc3ccccc3)(C(=O)O)CC2)o1` | 2.532 |
| `CNC(=O)c1cc(C)n(-c2cccc(OC)c2)c1C` | 4.571 |
| `CSCCC(C)(O)CNS(=O)(=O)Cc1cccc(C)c1` (centres undefined) | 8.173 |
| `O=C(C[S+]([O-])Cc1ccccc1F)N1CCc2sccc2C1` (centres undefined) | 4.762 |
| `Cc1n[nH]c(C2CN(C(=O)c3coc(Br)c3)CCO2)n1` (centres undefined) | 0.9804 |
| `Cn1cc(N2CC3(CCN(CC4CC4)C3)CC2=O)cn1` (centres undefined) | 4.478 |
| `COc1ncccc1C(Cc1ccsc1)NC(=O)Cn1cccnc1=O` (centres undefined) | 12.22 |
| `CCN1CCN(C2CCN(C(C(N)=O)c3ccccc3)CC2)C1=O` (centres undefined) | 5.419 |
| `CN1CCN(C2CCCC2)C(CCO)C1` (centres undefined) | 1.339 |
| `CC(=O)N1CC[C@H]2N(C)CC[C@@]2(C(=O)Nc2cccnc2)CC1` | 7.735 |

From ChEMBL document CHEMBL3988442, “University of Dundee, Small-Polar-MMV Screening Library” (2021).